# Experimental data from PubChem BioAssay AID1487 (National Center for Advancing Translational Sciences (NCATS), 2009).
# Several values for one entry are separate records, joined by “and”; a condition that tells them apart may be missing. Equal values may be shown once. The list shows a part of the results. Shown are side measurements of this screen, not its main read-out; they come without a call. Most of these compounds were active or inconclusive in the main read-out, so they are no random draw. The note in brackets gives the kind of curve behind each potency; many fits are weak.
# Assay: qHTS Assay for Modulators of Lamin A Splicing
# Details: HeLa LMNA splicing GFP/RFP minigene ratio, 48 h
# Procedure, shortened: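 S3 HeLa cells stably expressing lamin A-EGFP splicing minigene plus DsRed2, 600 cells/well, 48 h compound exposure at 37C. Laser-scanning cytometry; analysed as GFP (500-530 nm)/RFP (575-640 nm) total intensity ratio; 0.5% DMSO vehicle.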
# [1] = measured here: GFP splicing reporter channel
# [2] = measured here: RFP viability control channel
Compound,AC50 [1],AC50 [2]
CCCCn1c(/C=N/Nc2nc3ccccc3[nH]2)nc2ccccc21,"17.8 µM [rising, single point]","15.8 µM [rising, partial curve, poor fit]"
Cc1cccc(C)c1-n1ncc(C(=O)Nc2ccc3c(c2)OCCO3)c1C1CCN(C(=O)OC(C)(C)C)CC1,"22.4 µM [falling, partial curve, poor fit]",
Cc1[nH]n(-c2ccccc2)c(=O)c1C(C[N+](=O)[O-])c1ccc(Cl)cc1 (stereo not given),,"11.2 µM [rising, partial curve]"
O=C(Nc1cc(Cl)ccn1)C1CCN(S(=O)(=O)c2cccs2)CC1,"6.31 µM [rising, full curve]","5.62 µM [rising, full curve]"
CC1Cc2ccccc2N1CC(=O)NC(=O)NC1CCCCC1 (stereo not given),,"0.00398 µM [falling, full curve, poor fit]"
O=C(CCCCn1c(=O)c2ccccc2n(Cc2ccccc2F)c1=O)NC1CCN(Cc2ccccc2)CC1,"1.26 µM [falling, partial curve]","1.12 µM [falling, partial curve, poor fit]"
COC(=O)C(C)Sc1ncnc2c1nnn2-c1ccc(F)cc1 (stereo not given),"35.5 µM [rising, single point]","35.5 µM [rising, single point]"
COc1cccc(C(=O)O/N=C(\N)c2ccc([N+](=O)[O-])cc2)c1OC,,"12.6 µM [falling, single point]"
Cc1ccc(S(=O)(=O)NCC2COc3ccccc3O2)cc1 (stereo not given),,"31.6 µM [rising, single point]"
N#CCSc1nc2c(cc1C#N)CCCC2,"6.31 µM [falling, single point]",
C#Cc1ccc(C(=O)Nc2cc(C(N)=O)ccc2N2CCOCC2)cc1,,"0.0316 µM [rising, full curve, poor fit]"
Cc1ccc(-c2nc3ccccc3n2C)o1,"5.62 µM [rising, partial curve, poor fit]","8.91 µM [rising, single point]"
Cc1ccc(-c2cn(S(=O)(=O)c3cccc4nsnc34)nc2N)cc1,"3.98 µM [rising, full curve, poor fit]","12.6 µM [rising, partial curve, poor fit]"
CC1CN(CC(=O)Nc2cc(S(=O)(=O)N3CCCC3)ccc2Cl)CC(C)O1 (stereo not given),"0.355 µM [falling, full curve]",
COc1ccc(C)cc1Cn1c(S(C)(=O)=O)nc2ccccc21,,"20 µM [rising, partial curve, poor fit]"
COc1ccc(Nc2nc3ccccc3nc2C)cc1,"7.08 µM [rising, partial curve, poor fit]",
Cc1ccc2c(c1)C(SCC(=O)NCCc1ccccc1)CC1(CCCC1)O2 (stereo not given),,"22.4 µM [rising, single point]"
Cn1cc(Br)c(C(=O)n2cc(Br)cn2)n1,"5.62 µM [falling, full curve, poor fit]",

Compound,AC50 [1],AC50 [2]
Cn1c(=O)n(C)c2cc(NS(=O)(=O)c3ccccc3)c(NCc3ccccc3)cc21,"39.8 µM [falling, partial curve, poor fit]",
Cc1cc(=O)n2[nH]c(N)c(N=Nc3ccccc3)c2n1,,"17.8 µM [rising, single point]"
Cc1cccc(-n2c(C)nc3cc(C(=O)NCc4ccc5c(c4)OCO5)ccc32)c1,,"0.1 µM [rising, full curve, poor fit]"
C[C@]12CCC(=O)C=C1CC[C@@H]1[C@@H]2[C@@H](O)C[C@@]2(C)[C@H]1CC[C@]2(O)C(=O)COC(=O)CCC(=O)O,"5.62 µM [rising, single point]",
Cc1ccc(Cl)cc1N1CCN(C(=O)CSc2nnc3n2C(C)(C)Cc2ccccc2-3)CC1,,"15.8 µM [rising, partial curve]"
CCOC(=O)c1cnc2sc3c(n2c1=O)CCCC3,,"12.6 µM [rising, partial curve, poor fit]"
CCNc1nc(SCCOc2ccccc2)nc(N(C)C)n1,,"22.4 µM [rising, single point]"
Cc1onc(-c2ccccc2)c1C(=O)N/N=C/c1cc2c(cc1Br)OCO2,"7.94 µM [rising, partial curve, poor fit]","22.4 µM [rising, partial curve]"
CSc1nsc(NC(=O)Cc2ccccc2)n1,,"12.6 µM [rising, single point]"
Cc1nn(-c2nc3ccccc3n2Cc2ccccc2)c2c1C(=O)CC(C)(C)C2,"12.6 µM [rising, partial curve, poor fit]","14.1 µM [rising, partial curve, poor fit]"
COC(=O)Cc1ccc(N(Cc2ccccc2F)S(=O)(=O)c2ccc(Br)cc2)cc1,,"10 µM [falling, partial curve]"
COc1cc(NC(=O)CN(C)Cc2ccc(OC(F)F)cc2)c(C)cc1[N+](=O)[O-],,"0.2 µM [rising, partial curve, poor fit]"
CC(C)(C)NC[C@H](O)COc1nsnc1N1CCOCC1,"0.891 nM [falling, full curve, poor fit] and 6.31 nM [falling, full curve, poor fit]","0.000794 µM [falling, full curve, poor fit]"
O=C(NC(=S)Nc1ccc(CN2CCCCC2)cc1)c1cccc(OCc2ccccc2)c1,,"17.8 µM [falling, single point]"
CCCc1cnc2c(c1SCc1cccc(C)c1)c(=O)n(C)c(=O)n2C,,"35.5 µM [rising, single point]"
Cc1ccc(/C(=N\O)c2oc3c(C)c4oc(=O)cc(C)c4cc3c2C)cc1,"17.8 µM [rising, single point]","14.1 µM [rising, partial curve]"
CCN(CC)S(=O)(=O)c1ccc2nc(NC(=O)c3cccs3)sc2c1,,"20 µM [rising, single point]"

# Some of the entries so far, with bars between the fields:
Compound | AC50 [1] | AC50 [2]
Cc1ccc(S(=O)(=O)NCC2COc3ccccc3O2)cc1 (stereo not given) |  | 31.6 µM [rising, single point]
N#CCSc1nc2c(cc1C#N)CCCC2 | 6.31 µM [falling, single point] | 
